Laboratory results published in the supplement of paper PMC8728848.
This is one part of the list.

Columns and labels:
Assay in all cases: glycan array binding signal (z-score within array); higher = stronger binding
Conditions in all cases: glycan notation: IUPAC condensed, linker removed
Fuc(a1-2)Gal = target: Fuc(a1-2)Gal
How it was run: (§1)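 Glycan array binding is given as a within-array Z-score, which can be read as non-binding when negative. The arrays, 3228 of them, came from the Consortium for Functional Glycomics database and were retained only where the protein sequence was available. Z-scores were averaged across arrays of the same protein sequence at different concentrations or buffers and across linkers.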

Fuc(a1-2)Gal(b1-3)GalNAc = target: Fuc(a1-2)Gal(b1-3)GalNAc
How it was run: as §1

[1] = target: Fuc(a1-2)Gal(b1-3)GalNAc(a1-3)[Fuc(a1-2)]Gal(b1-4)Glc
How it was run: as §1

[2] = target: Fuc(a1-2)Gal(b1-3)GalNAc(a1-3)[Fuc(a1-2)]Gal(b1-4)GlcNAc
How it was run: as §1

[3] = target: Fuc(a1-2)Gal(b1-3)GalNAc(b1-3)Gal
How it was run: as §1

[4] = target: Fuc(a1-2)Gal(b1-3)GalNAc(b1-3)Gal(a1-4)Gal(b1-4)Glc
How it was run: as §1

[5] = target: Fuc(a1-2)Gal(b1-3)GalNAc(b1-4)[Neu5Ac(a2-3)]Gal(b1-4)Glc
How it was run: as §1

Fuc(a1-2)Gal(b1-3)GlcNAc = target: Fuc(a1-2)Gal(b1-3)GlcNAc
How it was run: as §1

[6] = target: Fuc(a1-2)Gal(b1-3)GlcNAc(b1-2)Man(a1-3)[Fuc(a1-2)Gal(b1-3)GlcNAc(b1-2)Man(a1-6)]Man(b1-4)GlcNAc(b1-4)GlcNAc
How it was run: as §1

[7] = target: Fuc(a1-2)Gal(b1-3)GlcNAc(b1-2)Man(a1-3)[Fuc(a1-2)Gal(b1-3)GlcNAc(b1-2)Man(a1-6)]Man(b1-4)GlcNAc(b1-4)[Fuc(a1-6)]GlcNAc
How it was run: as §1

[8] = target: Fuc(a1-2)Gal(b1-3)GlcNAc(b1-3)Gal(b1-4)Glc
How it was run: as §1

[9] = target: Fuc(a1-2)Gal(b1-3)GlcNAc(b1-3)GalNAc
How it was run: as §1

[10] = target: Fuc(a1-2)Gal(b1-3)GlcNAc(b1-3)[Fuc(a1-2)Gal(b1-3)GlcNAc(b1-6)]GalNAc
How it was run: as §1

[11] = target: Fuc(a1-2)Gal(b1-3)GlcNAc(b1-3)[Gal(b1-4)GlcNAc(b1-6)]Gal(b1-4)Glc
How it was run: as §1

[12] = target: Fuc(a1-2)Gal(b1-3)GlcNAc(b1-3)[Neu5Ac(a2-6)Gal(b1-4)GlcNAc(b1-6)]Gal(b1-4)Glc
How it was run: as §1

[13] = target: Fuc(a1-2)Gal(b1-3)GlcNAc6S
How it was run: as §1

[14] = target: Fuc(a1-2)Gal(b1-3)[Fuc(a1-4)]GlcNAc
How it was run: as §1

[15] = target: Fuc(a1-2)Gal(b1-3)[Fuc(a1-4)]GlcNAc(b1-2)Man(a1-3)[Fuc(a1-2)Gal(b1-3)[Fuc(a1-4)]GlcNAc(b1-2)Man(a1-3)]Man(b1-4)GlcNAc(b1-4)GlcNAc
How it was run: as §1

[16] = target: Fuc(a1-2)Gal(b1-3)[Fuc(a1-4)]GlcNAc(b1-2)Man(a1-3)[Fuc(a1-2)Gal(b1-3)[Fuc(a1-4)]GlcNAc(b1-2)Man(a1-6)]Man(b1-4)GlcNAc(b1-4)[Fuc(a1-6)]GlcNAc(b1-4)[Fuc(a1-6)]GlcNAc
How it was run: as §1

[17] = target: Fuc(a1-2)Gal(b1-3)[Fuc(a1-4)]GlcNAc(b1-3)[Fuc(a1-3)[Gal(b1-4)]GlcNAc(b1-6)]Gal(b1-4)Glc
How it was run: as §1

[18] = target: Fuc(a1-2)Gal(b1-3)[Fuc(a1-4)]GlcNAc(b1-3)[Gal(b1-4)GlcNAc(b1-6)]Gal(b1-4)Glc
How it was run: as §1

Fuc(a1-2)Gal(b1-4)Glc = target: Fuc(a1-2)Gal(b1-4)Glc
How it was run: as §1

Fuc(a1-2)Gal(b1-4)Glc6S = target: Fuc(a1-2)Gal(b1-4)Glc6S
How it was run: as §1

Fuc(a1-2)Gal(b1-4)GlcNAc = target: Fuc(a1-2)Gal(b1-4)GlcNAc
How it was run: as §1

[19] = target: Fuc(a1-2)Gal(b1-4)GlcNAc(b1-2)Man
How it was run: as §1

[20] = target: Fuc(a1-2)Gal(b1-4)GlcNAc(b1-2)Man(a1-3)[Fuc(a1-2)Gal(b1-4)GlcNAc(b1-2)Man(a1-6)]Man(b1-4)GlcNAc(b1-4)GlcNAc
How it was run: as §1

[21] = target: Fuc(a1-2)Gal(b1-4)GlcNAc(b1-2)Man(a1-3)[Fuc(a1-2)Gal(b1-4)GlcNAc(b1-2)Man(a1-6)]Man(b1-4)GlcNAc(b1-4)[Fuc(a1-6)]GlcNAc
How it was run: as §1

[22] = target: Fuc(a1-2)Gal(b1-4)GlcNAc(b1-2)[Fuc(a1-2)Gal(b1-4)GlcNAc(b1-4)]Man(a1-3)[Fuc(a1-2)Gal(b1-4)GlcNAc(b1-2)Man(a1-6)]Man(b1-4)GlcNAc(b1-4)GlcNAc
How it was run: as §1

[23] = target: Fuc(a1-2)Gal(b1-4)GlcNAc(b1-3)Gal(b1-4)GlcNAc
How it was run: as §1

[24] = target: Fuc(a1-2)Gal(b1-4)GlcNAc(b1-3)Gal(b1-4)GlcNAc(b1-2)Man(a1-3)[Fuc(a1-2)Gal(b1-4)GlcNAc(b1-3)Gal(b1-4)GlcNAc(b1-2)Man(a1-6)]Man(b1-4)GlcNAc(b1-4)GlcNAc
How it was run: as §1

[25] = target: Fuc(a1-2)Gal(b1-4)GlcNAc(b1-3)Gal(b1-4)GlcNAc(b1-3)Gal(b1-4)GlcNAc
How it was run: as §1

[26] = target: Fuc(a1-2)Gal(b1-4)GlcNAc(b1-3)GalNAc
How it was run: as §1

[27] = target: Fuc(a1-2)Gal(b1-4)GlcNAc(b1-3)[Fuc(a1-2)Gal(b1-4)GlcNAc(b1-6)]GalNAc
How it was run: as §1

[28] = target: Fuc(a1-2)Gal(b1-4)GlcNAc(b1-3)[Fuc(a1-3)[Gal(b1-4)]GlcNAc(b1-6)]Gal(b1-4)Glc
How it was run: as §1

[29] = target: Fuc(a1-2)Gal(b1-4)GlcNAc(b1-6)GalNAc
How it was run: as §1

[30] = target: Fuc(a1-2)Gal(b1-4)GlcNAc6S
How it was run: as §1

[31] = target: Fuc(a1-2)Gal(b1-4)[Fuc(a1-3)]GlcNAc
How it was run: as §1

[32] = target: Fuc(a1-2)Gal(b1-4)[Fuc(a1-3)]GlcNAc(b1-2)Man(a1-3)[Fuc(a1-2)Gal(b1-4)[Fuc(a1-3)]GlcNAc(b1-2)Man(a1-6)]Man(b1-4)GlcNAc(b1-4)[Fuc(a1-6)]GlcNAc
How it was run: as §1

[33] = target: Fuc(a1-2)Gal(b1-4)[Fuc(a1-3)]GlcNAc(b1-2)[Fuc(a1-2)Gal(b1-4)[Fuc(a1-3)]GlcNAc(b1-4)]Man(a1-3)[Fuc(a1-2)Gal(b1-4)[Fuc(a1-3)]GlcNAc(b1-2)Man(a1-6)]Man(b1-4)GlcNAc(b1-4)GlcNAc
How it was run: as §1

[34] = target: Fuc(a1-2)Gal(b1-4)[Fuc(a1-3)]GlcNAc(b1-3)Gal(b1-4)[Fuc(a1-3)]GlcNAc
How it was run: as §1

[35] = target: Fuc(a1-2)Gal(b1-4)[Fuc(a1-3)]GlcNAc(b1-3)Gal(b1-4)[Fuc(a1-3)]GlcNAc(b1-3)Gal(b1-4)[Fuc(a1-3)]GlcNAc
How it was run: as §1

[36] = target: Fuc(a1-2)Gal(b1-4)[Fuc(a1-3)]GlcNAc(b1-3)GalNAc
How it was run: as §1

[37] = target: Fuc(a1-2)Gal(b1-4)[Fuc(a1-3)]GlcNAc(b1-3)[Neu5Ac(a2-6)Gal(b1-4)GlcNAc(b1-6)]Gal(b1-4)Glc
How it was run: as §1

[38] = target: Fuc(a1-2)Gal3S(b1-4)GlcNAc
How it was run: as §1

[39] = target: Fuc(a1-2)Gal6S(b1-3)GlcNAc
How it was run: as §1

B1: GS7807G-bfa-506-18-506 (Bacteroides fragilis) (protein)
chain: ASCDKFDEINTDPDATTKVTSSLLATGLLLDITSSSASKSFIYDELLAKQMAWGESMEDYQYNVFGRSGFGGYTTLINAQKMVESVSDDNVNAYDGLAHFIKAYKIFYMSMEMGDLPYEEALQGELGLVRPKYNTQKEVMNFILSDLETAYELFSTAKDFDGDPILGGSISKWKKATTAFQLKVLMHLSKKESDADLKVKERFARIVASGSLMESNEDNLQMKYADKANTVYPFHNTNTKHAGYAMLSTMLIDKFKATGDIRMFYYAKPAKAKLNEGVTADSWDAYIGTDPSLPFEQIEKAYATEQYSGFNARYTDYPSGEPVVRLGYAEQNFILAEAAVRGWISGDASAYYKKAIRAHMEFIASNTPDEEVYHHGHPITEEAIAAFLETPAIQLSGEKEEDIEKILTQRYLASFMQHPYDVYYDYRRTGYPVLPINPATNRNTMNDRLPMRWMYPKSESDYNLEHQNEALERQFGGVDDVNKLMWILQ
glycan array binding signal (z-score) (Fuc(a1-2)Gal): -0.293 | glycan array binding signal (z-score) (Fuc(a1-2)Gal(b1-3)GalNAc): -0.62 | glycan array binding signal (z-score) [1]: -0.851 | glycan array binding signal (z-score) [2]: -0.845 | glycan array binding signal (z-score) [3]: -0.909 | glycan array binding signal (z-score) [4]: -0.698 | glycan array binding signal (z-score) [5]: -0.68 | glycan array binding signal (z-score) (Fuc(a1-2)Gal(b1-3)GlcNAc): -0.373 | glycan array binding signal (z-score) [6]: -0.108 | glycan array binding signal (z-score) [7]: 0.142 | glycan array binding signal (z-score) [8]: -0.527 | glycan array binding signal (z-score) [9]: -0.395 | glycan array binding signal (z-score) [10]: 3.91 | glycan array binding signal (z-score) [11]: 0.516 | glycan array binding signal (z-score) [12]: -0.857 | glycan array binding signal (z-score) [13]: -0.371 | glycan array binding signal (z-score) [14]: -1.01 | glycan array binding signal (z-score) [15]: 0.421 | glycan array binding signal (z-score) [16]: -0.199 | glycan array binding signal (z-score) [17]: -0.408 | glycan array binding signal (z-score) [18]: -0.803 | glycan array binding signal (z-score) (Fuc(a1-2)Gal(b1-4)Glc): -0.597 | glycan array binding signal (z-score) (Fuc(a1-2)Gal(b1-4)Glc6S): 0.434 | glycan array binding signal (z-score) (Fuc(a1-2)Gal(b1-4)GlcNAc): -0.46 | glycan array binding signal (z-score) [19]: 0.262 | glycan array binding signal (z-score) [20]: 1.25 | glycan array binding signal (z-score) [21]: -0.467 | glycan array binding signal (z-score) [22]: -0.031 | glycan array binding signal (z-score) [23]: -0.967 | glycan array binding signal (z-score) [24]: 0.95 | glycan array binding signal (z-score) [25]: -0.968 | glycan array binding signal (z-score) [26]: 0.625 | glycan array binding signal (z-score) [27]: 1.32 | glycan array binding signal (z-score) [28]: -0.145 | glycan array binding signal (z-score) [29]: 1.75 | glycan array binding signal (z-score) [30]: -0.487 | glycan array binding signal (z-score) [31]: -0.916 | glycan array binding signal (z-score) [32]: 0.243 | glycan array binding signal (z-score) [33]: -0.695 | glycan array binding signal (z-score) [34]: -0.553 | glycan array binding signal (z-score) [35]: -0.767 | glycan array binding signal (z-score) [36]: 0.907 | glycan array binding signal (z-score) [37]: -0.781 | glycan array binding signal (z-score) [38]: -0.982 | glycan array binding signal (z-score) [39]: -0.497
